Data as given in PubChem BioAssay AID1259327 (Drosophila RNAi Screening Center, 2017)

- Purpose: 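Data from controls in screens of zinc and manganese toxicity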
- System: Drosophila S2R+ cells
- Knock-down reagent: long dsRNA against Drosophila genes
- Timing: 5 days (water added on day 4, read one day later)
- Challenge: water added as vehicle, no metal, one day before read-out
- Measured: 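Total ATP measured by luciferase light, scaled to plate mean, duplicates averaged, then z-scored across plates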
- Scale: ATP z-score: higher = more total ATP than typical wells; ATP luminescence: higher = more total ATP
- Active means: 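a hit is any knock-down whose absolute ATP z-score is greater than 1.5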
- Meaning of the calls: active = hit: ATP up or down; inactive = no clear ATP change
Shown is one part, drawn at random, of about 3,100 deposited reagents. 378 of them (12%) were called active. 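Hits include both directions; z-score sign shows ATP rise or fall; raw luminescence values are not plate-normalised.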 A number with no mark means an inactive call. Not given: the amount of reagent.

After knock-down of Osi14 (Osiris 14) [DRSC12368] the results were ATP z-score, duplicate mean 0.0881; ATP luminescence, replicate 1 (RLU) = 9.32e5; ATP luminescence, replicate 2 (RLU) = 8.83e5.
Against Osi14 (Osiris 14) [DRSC26397] the deposit lists ATP z-score, duplicate mean 0.319; ATP luminescence, replicate 1 (RLU) = 7.84e5; ATP luminescence, replicate 2 (RLU) = 9.62e5.
With knock-down of Ror [DRSC03414], the screen gave ATP z-score, duplicate mean 0.244; ATP luminescence, replicate 1 (RLU) = 7.55e5; ATP luminescence, replicate 2 (RLU) = 7.50e5.
Against Ror [DRSC36669] the deposit lists ATP z-score, duplicate mean -0.508; ATP luminescence, replicate 1 (RLU) = 4.94e5; ATP luminescence, replicate 2 (RLU) = 5.80e5.
After knock-down of Ror [DRSC36670] the results were ATP z-score, duplicate mean 1.05; ATP luminescence, replicate 1 (RLU) = 6.85e5; ATP luminescence, replicate 2 (RLU) = 6.52e5.
Knock-down of CG9483 [DRSC03226] gave: ATP z-score, duplicate mean 2.1 (active); ATP luminescence, replicate 1 (RLU) = 6.15e5; ATP luminescence, replicate 2 (RLU) = 6.38e5.
CG9483 [DRSC29929] gave ATP z-score, duplicate mean -0.318; ATP luminescence, replicate 1 (RLU) = 6.38e5; ATP luminescence, replicate 2 (RLU) = 4.65e5.
PGAP2 (Post-GPI attachment to proteins 2) [DRSC00632] scored ATP z-score, duplicate mean 0.599; ATP luminescence, replicate 1 (RLU) = 5.26e5; ATP luminescence, replicate 2 (RLU) = 5.15e5.
With knock-down of PGAP2 (Post-GPI attachment to proteins 2) [DRSC28496] the results were ATP z-score, duplicate mean -0.0225; ATP luminescence, replicate 1 (RLU) = 8.67e5; ATP luminescence, replicate 2 (RLU) = 7.77e5.
Against CG6901 [DRSC16129] the deposit lists ATP z-score, duplicate mean -0.519; ATP luminescence, replicate 1 (RLU) = 2.80e5; ATP luminescence, replicate 2 (RLU) = 6.95e5.
For CG6901 [DRSC26477] the deposit lists ATP z-score, duplicate mean 1; ATP luminescence, replicate 1 (RLU) = 8.17e5; ATP luminescence, replicate 2 (RLU) = 9.40e5.
Silencing of m (miniature) [DRSC20181] gave: ATP z-score, duplicate mean -1.57 (active); ATP luminescence, replicate 1 (RLU) = 4.15e5; ATP luminescence, replicate 2 (RLU) = 6.91e5.
Against m (miniature) [DRSC29636], the values are ATP z-score, duplicate mean 0.427; ATP luminescence, replicate 1 (RLU) = 7.72e5; ATP luminescence, replicate 2 (RLU) = 9.67e5.
ppk7 (pickpocket 7) [DRSC03236] scored ATP z-score, duplicate mean 0.368; ATP luminescence, replicate 1 (RLU) = 7.38e5; ATP luminescence, replicate 2 (RLU) = 7.91e5.
Knock-down of Rh7 (Rhodopsin 7) [DRSC10529] came out at: ATP z-score, duplicate mean -0.413; ATP luminescence, replicate 1 (RLU) = 6.33e5; ATP luminescence, replicate 2 (RLU) = 7.42e5.
Against Rh7 (Rhodopsin 7) [DRSC28331] the deposit lists ATP z-score, duplicate mean 1.86 (active); ATP luminescence, replicate 1 (RLU) = 1.12e6; ATP luminescence, replicate 2 (RLU) = 9.77e5.

Reagents above called active:
CG9483 [DRSC03226]: ATP z-score, duplicate mean = 2.1 (active); ATP luminescence, replicate 1 (RLU) = 6.15e5; ATP luminescence, replicate 2 (RLU) = 6.38e5
m (miniature) [DRSC20181]: ATP z-score, duplicate mean = -1.57 (active); ATP luminescence, replicate 1 (RLU) = 4.15e5; ATP luminescence, replicate 2 (RLU) = 6.91e5
Rh7 (Rhodopsin 7) [DRSC28331]: ATP z-score, duplicate mean = 1.86 (active); ATP luminescence, replicate 1 (RLU) = 1.12e6; ATP luminescence, replicate 2 (RLU) = 9.77e5
